Assay results reported in the supplement of paper PMC10849652.
The list shows a part of the results.

Amino acid sequences for entries named in this document (tags omitted). A change or cut given only in a name is not applied to a line headed by its entry.
UniProt Q14254: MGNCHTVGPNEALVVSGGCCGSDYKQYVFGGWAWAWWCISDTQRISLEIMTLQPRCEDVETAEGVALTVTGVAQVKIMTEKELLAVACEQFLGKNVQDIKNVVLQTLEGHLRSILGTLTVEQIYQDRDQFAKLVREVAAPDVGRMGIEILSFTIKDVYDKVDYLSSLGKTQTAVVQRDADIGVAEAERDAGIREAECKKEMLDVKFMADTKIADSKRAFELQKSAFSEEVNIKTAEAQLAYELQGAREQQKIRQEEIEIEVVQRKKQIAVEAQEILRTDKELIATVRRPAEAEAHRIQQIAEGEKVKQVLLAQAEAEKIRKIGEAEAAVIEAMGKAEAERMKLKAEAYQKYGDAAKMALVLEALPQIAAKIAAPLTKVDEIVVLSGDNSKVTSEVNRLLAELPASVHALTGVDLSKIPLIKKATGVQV
UniProt P39748, whole entry, looked up: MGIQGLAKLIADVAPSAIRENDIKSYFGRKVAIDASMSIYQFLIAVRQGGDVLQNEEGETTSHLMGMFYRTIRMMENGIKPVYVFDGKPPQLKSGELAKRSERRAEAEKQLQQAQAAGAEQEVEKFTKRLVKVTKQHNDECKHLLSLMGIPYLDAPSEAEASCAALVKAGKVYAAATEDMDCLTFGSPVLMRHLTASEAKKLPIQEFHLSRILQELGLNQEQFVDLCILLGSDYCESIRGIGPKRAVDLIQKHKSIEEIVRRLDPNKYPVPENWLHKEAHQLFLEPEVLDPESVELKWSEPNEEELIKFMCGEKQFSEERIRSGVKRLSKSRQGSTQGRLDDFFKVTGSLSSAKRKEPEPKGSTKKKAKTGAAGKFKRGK
UniProt Q9Y4F1: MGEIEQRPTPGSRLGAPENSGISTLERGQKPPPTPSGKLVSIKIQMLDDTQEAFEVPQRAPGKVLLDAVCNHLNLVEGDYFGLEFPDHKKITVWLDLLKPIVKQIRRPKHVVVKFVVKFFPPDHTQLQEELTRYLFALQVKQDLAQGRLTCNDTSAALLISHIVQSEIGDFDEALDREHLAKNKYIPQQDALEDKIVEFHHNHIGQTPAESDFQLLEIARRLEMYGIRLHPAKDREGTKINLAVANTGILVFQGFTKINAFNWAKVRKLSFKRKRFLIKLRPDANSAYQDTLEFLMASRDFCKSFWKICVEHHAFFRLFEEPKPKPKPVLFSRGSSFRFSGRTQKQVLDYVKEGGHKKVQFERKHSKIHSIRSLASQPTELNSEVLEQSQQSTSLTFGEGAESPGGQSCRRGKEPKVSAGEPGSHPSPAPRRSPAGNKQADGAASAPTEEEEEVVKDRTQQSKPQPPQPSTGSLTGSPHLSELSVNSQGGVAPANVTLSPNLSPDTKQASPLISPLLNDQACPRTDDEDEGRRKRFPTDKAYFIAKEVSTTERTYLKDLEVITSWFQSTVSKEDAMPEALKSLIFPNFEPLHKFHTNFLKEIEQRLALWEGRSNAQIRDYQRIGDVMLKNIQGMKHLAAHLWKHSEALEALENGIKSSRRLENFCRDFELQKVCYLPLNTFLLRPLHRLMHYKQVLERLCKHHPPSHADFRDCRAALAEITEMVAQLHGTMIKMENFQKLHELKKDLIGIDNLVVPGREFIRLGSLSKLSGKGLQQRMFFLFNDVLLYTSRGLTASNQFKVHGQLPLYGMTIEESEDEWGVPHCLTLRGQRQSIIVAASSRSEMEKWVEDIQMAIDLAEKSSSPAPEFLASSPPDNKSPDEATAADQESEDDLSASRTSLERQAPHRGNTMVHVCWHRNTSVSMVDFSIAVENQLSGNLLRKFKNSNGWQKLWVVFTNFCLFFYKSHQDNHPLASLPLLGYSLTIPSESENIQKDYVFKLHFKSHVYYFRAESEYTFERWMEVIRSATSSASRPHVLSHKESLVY
UniProt P22087: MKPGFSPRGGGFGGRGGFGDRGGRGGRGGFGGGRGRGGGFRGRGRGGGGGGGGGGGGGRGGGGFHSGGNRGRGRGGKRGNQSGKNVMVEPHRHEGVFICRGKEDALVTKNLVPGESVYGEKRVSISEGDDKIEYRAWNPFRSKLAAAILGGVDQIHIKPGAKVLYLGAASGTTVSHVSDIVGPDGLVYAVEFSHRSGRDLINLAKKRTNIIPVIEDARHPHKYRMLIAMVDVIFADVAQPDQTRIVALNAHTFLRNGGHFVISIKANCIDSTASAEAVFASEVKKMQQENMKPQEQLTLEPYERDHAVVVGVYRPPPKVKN
UniProt Q13045: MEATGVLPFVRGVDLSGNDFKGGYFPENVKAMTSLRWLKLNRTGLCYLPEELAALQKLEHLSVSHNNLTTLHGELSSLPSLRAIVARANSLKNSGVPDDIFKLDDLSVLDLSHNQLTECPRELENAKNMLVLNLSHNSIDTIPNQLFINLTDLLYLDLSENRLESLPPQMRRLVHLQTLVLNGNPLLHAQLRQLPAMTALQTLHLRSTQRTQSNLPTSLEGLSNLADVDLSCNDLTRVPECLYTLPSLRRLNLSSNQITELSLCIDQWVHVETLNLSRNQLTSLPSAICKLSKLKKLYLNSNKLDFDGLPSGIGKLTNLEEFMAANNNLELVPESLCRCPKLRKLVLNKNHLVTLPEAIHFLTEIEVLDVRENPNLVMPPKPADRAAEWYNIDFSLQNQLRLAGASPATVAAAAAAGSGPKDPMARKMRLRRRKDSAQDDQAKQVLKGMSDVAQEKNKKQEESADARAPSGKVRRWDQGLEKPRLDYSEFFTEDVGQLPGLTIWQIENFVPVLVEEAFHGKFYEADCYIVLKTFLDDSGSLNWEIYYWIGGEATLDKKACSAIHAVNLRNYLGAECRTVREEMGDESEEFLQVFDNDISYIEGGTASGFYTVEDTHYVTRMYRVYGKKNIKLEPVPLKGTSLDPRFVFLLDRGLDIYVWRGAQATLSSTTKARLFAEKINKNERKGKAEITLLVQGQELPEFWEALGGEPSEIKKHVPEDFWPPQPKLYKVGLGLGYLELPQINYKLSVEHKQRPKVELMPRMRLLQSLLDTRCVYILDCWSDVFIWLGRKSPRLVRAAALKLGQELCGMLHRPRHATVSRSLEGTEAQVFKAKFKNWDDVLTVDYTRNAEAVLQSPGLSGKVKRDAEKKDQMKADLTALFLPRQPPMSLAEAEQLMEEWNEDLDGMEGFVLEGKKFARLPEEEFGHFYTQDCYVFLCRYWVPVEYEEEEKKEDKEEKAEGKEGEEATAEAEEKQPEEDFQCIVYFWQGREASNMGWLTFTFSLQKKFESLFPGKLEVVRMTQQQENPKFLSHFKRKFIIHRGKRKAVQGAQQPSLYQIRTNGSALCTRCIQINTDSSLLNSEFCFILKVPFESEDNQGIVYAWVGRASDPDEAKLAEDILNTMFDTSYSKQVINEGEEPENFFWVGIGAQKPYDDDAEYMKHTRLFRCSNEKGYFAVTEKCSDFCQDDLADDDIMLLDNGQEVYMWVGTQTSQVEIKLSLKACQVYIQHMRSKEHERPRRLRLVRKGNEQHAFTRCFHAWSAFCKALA
UniProt Q5T0N5: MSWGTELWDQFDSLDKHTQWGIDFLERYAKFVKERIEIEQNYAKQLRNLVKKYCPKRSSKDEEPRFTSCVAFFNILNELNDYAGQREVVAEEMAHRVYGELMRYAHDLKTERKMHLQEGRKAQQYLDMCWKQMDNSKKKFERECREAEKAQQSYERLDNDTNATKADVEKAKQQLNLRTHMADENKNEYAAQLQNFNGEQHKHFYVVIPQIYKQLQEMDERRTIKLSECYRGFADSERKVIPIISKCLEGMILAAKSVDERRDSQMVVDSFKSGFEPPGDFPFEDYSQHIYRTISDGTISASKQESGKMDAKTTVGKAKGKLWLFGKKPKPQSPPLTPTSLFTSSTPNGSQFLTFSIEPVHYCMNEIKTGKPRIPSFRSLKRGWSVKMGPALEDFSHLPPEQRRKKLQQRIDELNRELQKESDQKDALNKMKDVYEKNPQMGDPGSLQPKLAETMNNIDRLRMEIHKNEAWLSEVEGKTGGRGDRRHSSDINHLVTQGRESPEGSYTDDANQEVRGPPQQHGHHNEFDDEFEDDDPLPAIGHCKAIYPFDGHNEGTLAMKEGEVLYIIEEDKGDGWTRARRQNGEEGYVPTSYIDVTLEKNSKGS
UniProt Q6PIW4: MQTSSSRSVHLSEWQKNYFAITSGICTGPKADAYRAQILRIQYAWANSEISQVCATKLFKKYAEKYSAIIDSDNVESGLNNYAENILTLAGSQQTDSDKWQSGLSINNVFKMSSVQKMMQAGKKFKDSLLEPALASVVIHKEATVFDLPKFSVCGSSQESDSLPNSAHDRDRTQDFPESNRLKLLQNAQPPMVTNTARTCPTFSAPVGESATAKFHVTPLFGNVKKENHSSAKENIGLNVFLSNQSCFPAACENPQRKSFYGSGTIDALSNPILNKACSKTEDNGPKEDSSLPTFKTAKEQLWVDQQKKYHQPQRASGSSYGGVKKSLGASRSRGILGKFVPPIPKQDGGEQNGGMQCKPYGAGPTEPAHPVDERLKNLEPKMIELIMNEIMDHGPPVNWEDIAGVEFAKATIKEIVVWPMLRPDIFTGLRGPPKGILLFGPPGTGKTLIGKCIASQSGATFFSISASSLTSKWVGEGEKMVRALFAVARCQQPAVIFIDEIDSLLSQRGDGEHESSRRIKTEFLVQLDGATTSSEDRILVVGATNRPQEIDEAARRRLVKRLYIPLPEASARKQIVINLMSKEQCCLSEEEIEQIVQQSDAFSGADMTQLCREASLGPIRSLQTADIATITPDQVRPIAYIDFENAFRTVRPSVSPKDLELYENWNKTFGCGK
UniProt Q8NFF5: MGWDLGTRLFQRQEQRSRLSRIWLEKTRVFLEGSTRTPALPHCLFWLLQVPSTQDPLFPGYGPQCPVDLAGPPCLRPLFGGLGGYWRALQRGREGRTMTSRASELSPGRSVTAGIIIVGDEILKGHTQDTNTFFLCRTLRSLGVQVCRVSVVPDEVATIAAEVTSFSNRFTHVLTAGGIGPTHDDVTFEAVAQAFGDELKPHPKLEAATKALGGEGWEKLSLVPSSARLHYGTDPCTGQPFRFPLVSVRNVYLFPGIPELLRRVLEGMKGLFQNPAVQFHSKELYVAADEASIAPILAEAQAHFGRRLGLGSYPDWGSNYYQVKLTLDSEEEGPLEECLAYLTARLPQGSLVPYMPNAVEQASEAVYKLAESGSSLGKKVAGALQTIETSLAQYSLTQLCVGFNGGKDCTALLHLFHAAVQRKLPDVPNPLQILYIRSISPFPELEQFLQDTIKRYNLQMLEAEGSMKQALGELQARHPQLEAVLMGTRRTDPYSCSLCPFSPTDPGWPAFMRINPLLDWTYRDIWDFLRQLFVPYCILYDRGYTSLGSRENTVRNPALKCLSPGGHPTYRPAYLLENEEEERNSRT
UniProt Q8NB91: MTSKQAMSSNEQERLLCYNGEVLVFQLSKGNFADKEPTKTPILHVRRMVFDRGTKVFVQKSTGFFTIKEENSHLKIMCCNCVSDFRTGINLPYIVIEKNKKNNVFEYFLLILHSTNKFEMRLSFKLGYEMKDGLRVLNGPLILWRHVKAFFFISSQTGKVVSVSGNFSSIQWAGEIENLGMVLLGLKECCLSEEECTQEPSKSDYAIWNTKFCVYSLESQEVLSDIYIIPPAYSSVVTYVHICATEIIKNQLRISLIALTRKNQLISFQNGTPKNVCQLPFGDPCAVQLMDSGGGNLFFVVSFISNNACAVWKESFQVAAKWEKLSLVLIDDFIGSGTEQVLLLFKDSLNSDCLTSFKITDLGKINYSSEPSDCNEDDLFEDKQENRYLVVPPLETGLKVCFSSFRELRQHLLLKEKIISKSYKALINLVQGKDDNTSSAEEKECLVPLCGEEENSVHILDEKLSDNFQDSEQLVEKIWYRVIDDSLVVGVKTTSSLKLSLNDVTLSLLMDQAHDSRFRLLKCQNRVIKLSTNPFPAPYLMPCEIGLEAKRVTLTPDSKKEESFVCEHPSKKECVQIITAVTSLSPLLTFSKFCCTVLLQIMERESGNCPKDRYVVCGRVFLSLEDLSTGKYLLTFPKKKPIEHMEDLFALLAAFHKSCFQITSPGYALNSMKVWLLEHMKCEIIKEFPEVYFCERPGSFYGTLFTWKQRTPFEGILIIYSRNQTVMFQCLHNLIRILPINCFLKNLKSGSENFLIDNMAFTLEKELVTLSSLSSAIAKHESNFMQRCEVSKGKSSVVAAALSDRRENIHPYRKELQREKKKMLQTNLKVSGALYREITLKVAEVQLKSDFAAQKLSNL
UniProt Q9NXK8: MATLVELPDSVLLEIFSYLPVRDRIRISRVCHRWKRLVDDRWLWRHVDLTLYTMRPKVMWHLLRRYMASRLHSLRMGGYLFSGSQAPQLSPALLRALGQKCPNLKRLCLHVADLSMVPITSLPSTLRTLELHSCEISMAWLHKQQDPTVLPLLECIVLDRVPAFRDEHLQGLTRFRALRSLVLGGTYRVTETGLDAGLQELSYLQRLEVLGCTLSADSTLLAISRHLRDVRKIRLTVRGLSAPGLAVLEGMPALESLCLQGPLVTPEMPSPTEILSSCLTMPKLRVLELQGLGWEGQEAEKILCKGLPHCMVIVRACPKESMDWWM

What was measured:
Assay in all cases: log2 fold change, soluble protein after heating vs DMSO (PISA); higher = thermal stabilisation; K562 lysate, 10 uM; active = over 0.2 and 3.5 SD of the protein, either way, in both replicates (recomputed)
[1] = compound: C1=CC=C(C=C1)[C@H](COC2=CC3=C(C=C2)NC(=O)N3)NC(=O)C4=CC=CN(C4=O)CC5=CC(=C(C=C5)F)F
How it was run: (§1)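 The values are log-two fold changes in thermal stability compared with solvent controls and come from duplicates. They were obtained by TMTpro 16plex LC-MS/MS, with channel sums equalised, on the supernatant after 21,000xg for 90 min. That supernatant came from crude K562 extract at 1 mg/mL protein treated with 10 μM compound for 30 min, heated for 3 min across 48°C-58°C, pooled and brought to 0.5% NP-40 at 4°C.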

[2] = compound: CC1=C(SC2=C1C(=N[C@H](C3=NN=C(N32)C)CC(=O)N)C4=CC=C(C=C4)Cl)C
How it was run: as §1

[3] = compound: CC1=C2C(=CC=C1)N=C(N(C2=O)C3=CC=CC=C3C)CN4C=NC5=C(N=CN=C54)N
How it was run: as §1

[4] = compound: Cc1sc2c(c1C)C(c1ccc(Cl)cc1)=N[C@@H](CC(=O)OC(C)(C)C)c1nnc(C)n1-2
How it was run: as §1

[5] = compound: c1ccc([C@@H]2C[C@H]2NC2CCNCC2)cc1
How it was run: as §1

Measured: log2 fold change

FASTKD2 (UniProt Q9NYY8)
inactive: [1] -0.013 | [2] 0.044 | [3] 0.018 | [4] 0.017 | [5] 0.002

FLOT2 (UniProt Q14254)
inactive: [1] -0.048 | [2] -0.002 | [3] 0.03 | [4] 0.008 | [5] 0.003

FBXO38 (UniProt Q6PIJ6)
inactive: [1] -0.007 | [2] 0.094 | [3] 0.007 | [4] 0.068 | [5] 0.013

FEN1 (UniProt P39748)
inactive: [1] -0.029 | [2] 0.029 | [3] -0.016 | [4] 0.024 | [5] 0.022

FBXO4 (UniProt Q9UKT5)
inactive: [1] 0.022 | [2] -0.036 | [3] -0.001 | [4] -0.022 | [5] -0.004

FBXL20 (UniProt Q96IG2)
inactive: [1] 0.058 | [2] -0.049 | [3] -0.021 | [4] -0.024 | [5] -0.212

FARP1 isoform 2 (UniProt Q9Y4F1)
inactive: [1] 0.093 | [2] 0.005 | [3] 0.016 | [4] -0.017

FBL (UniProt P22087)
inactive: [1] 0.034 | [2] 0.002 | [3] -0.011 | [4] 0.003 | [5] -0.012

FERMT2 isoform 3 (UniProt Q96AC1)
inactive: [1] 0.007 | [2] -0.058 | [3] 0.073 | [4] -0.025 | [5] -0.034

FKBP5 (UniProt Q13451)
inactive: [1] -0.006 | [2] 0.003 | [3] 0.018 | [4] -0.019 | [5] 0.01

FBXW8 (UniProt Q8N3Y1)
inactive: [1] 0.105 | [2] -0.036 | [3] 0.062

FEZ2 isoform 2 (UniProt Q9UHY8)
inactive: [1] 0.042 | [2] 0.023 | [3] -0.036 | [4] -0.013 | [5] 0.116

FKBP8 isoform 2 (UniProt Q14318)
inactive: [1] -0.061 | [2] 0.012 | [3] -0.023 | [4] -0.084 | [5] 0.043

FLII (UniProt Q13045)
inactive: [1] 0.045 | [2] -0.033 | [3] 0 | [4] 0.007 | [5] 0.04

FKBP3 (UniProt Q00688)
inactive: [1] -0.04 | [2] 0.031 | [3] -0.029 | [4] -0.003 | [5] -0.001

FBLL1 (UniProt A6NHQ2)
inactive: [1] -0.017 | [2] 0.013 | [3] 0.037 | [4] -0.002 | [5] -0.062

FNBP1L (UniProt Q5T0N5)
inactive: [1] -0.082 | [2] -0.009 | [3] 0.012 | [4] -0.032 | [5] 0.029

FIGNL1 (UniProt Q6PIW4)
inactive: [1] -0.033 | [2] 0.01 | [3] 0.028 | [4] 0.051 | [5] 0.085

FAM86B2 (UniProt P0C5J1)
inactive: [1] -0.047 | [2] 0.011 | [3] -0.083

FLAD1 (UniProt Q8NFF5)
inactive: [1] 0.006 | [2] 0.032 | [3] 0.011 | [4] 0.017 | [5] 0.022

Retrieved one by one from the list above, 2 records:
FNBP1L (UniProt Q5T0N5)
inactive: [1] -0.082 | [2] -0.009 | [3] 0.012 | [4] -0.032 | [5] 0.029

FAM86B2 (UniProt P0C5J1)
inactive: [1] -0.047 | [2] 0.011 | [3] -0.083

Carrying on:

FKBP9 (UniProt O95302)
inactive: [1] -0.041 | [2] 0.001 | [3] 0.038 | [4] -0.003 | [5] -0.009

FAT3 isoform 1 (UniProt Q8TDW7)
inactive: [1] -0.085 | [2] 0.109 | [3] -0.024 | [4] -0.041 | [5] 0.087

FANCB (UniProt Q8NB91)
inactive: [1] 0.007 | [2] -0.032 | [3] 0.064 | [4] 0.1 | [5] -0.03

FLNC (UniProt Q14315)
inactive: [1] -0.008 | [2] -0.004 | [3] -0.008 | [4] -0.004 | [5] -0.053

FBXL12 (UniProt Q9NXK8)
inactive: [1] -0.058 | [2] 0.131 | [3] -0.015 | [4] 0.041 | [5] -0.01
